Data: patent US20110135573A1, “METALLOPROTEINASE 9 AND METALLOPROTEINASE 2 BINDING PROTEINS” (DYAX CORP., priority 2009, published 2011)
These are yes or no findings as the source states them, for the method shown. Some results given as binding are weak or reduced against the parent protein; the word gives no strength.

Chains of the proteins cited; added tags and fusions are not shown. Residues count along the entry.
UniProt P14780, residues 107-457: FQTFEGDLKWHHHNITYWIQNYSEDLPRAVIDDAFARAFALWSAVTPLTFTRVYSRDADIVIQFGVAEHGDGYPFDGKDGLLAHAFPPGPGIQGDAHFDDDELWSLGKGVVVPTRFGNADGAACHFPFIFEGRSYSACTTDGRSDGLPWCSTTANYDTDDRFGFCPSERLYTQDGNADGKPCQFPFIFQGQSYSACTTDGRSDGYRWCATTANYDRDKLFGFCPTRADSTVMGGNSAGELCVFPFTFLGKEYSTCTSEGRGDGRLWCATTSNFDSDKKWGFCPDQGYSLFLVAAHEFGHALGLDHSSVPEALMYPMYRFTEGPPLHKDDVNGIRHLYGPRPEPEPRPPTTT

Columns and labels:
[1] = biological target: Human MMP-9 catalytic domain (BIOMOL, SE-244) (human) (UniProt P14780); assay: SPR (Biacore 3000), antibody captured via anti-Fc, enzyme flowed
[2] = biological target: Human MMP-9 catalytic domain (BIOMOL, SE-244) (human) (UniProt P14780); assay: SPR (Biacore 3000)

B1: 539A-M0237-D02 hIgG1 (antibody, V domains shown)
VH: EVQLLESGGGLVQPGGSLRLSCAASGFTFSQYPMWWVRQAPGKGLEWVSYIVPSGGRTYYADSVKGRFTISRDNSKNTLYLQMNSLRAEDTAVYYCAKDRAYGDYVGWNGFDYWGQGTLVTVSS
VL: DIQMTQSPATLSLSPGERATLSCRASQSISSFLAWYQQKPGQAPRLLIYDASYRATGIPARFSGSGSGTDFTLTISSLEPEDYAVYYCQQRGNWPITFGQGTRLEIK
binding [1]: binds | binding [2]: binds
